Results from US20210123036A1.
Results are given in words; binding and its absence hold for the method and conditions named. In cells and extracts the contact can be indirect. Some binding calls cover weakened binding; strength is not graded here.

By UniProt entry, the sequences of proteins in these tests, tags left out. Where a name states a change or a piece, a line headed by the entry shows the natural chain unless it says otherwise.
UniProt P02453: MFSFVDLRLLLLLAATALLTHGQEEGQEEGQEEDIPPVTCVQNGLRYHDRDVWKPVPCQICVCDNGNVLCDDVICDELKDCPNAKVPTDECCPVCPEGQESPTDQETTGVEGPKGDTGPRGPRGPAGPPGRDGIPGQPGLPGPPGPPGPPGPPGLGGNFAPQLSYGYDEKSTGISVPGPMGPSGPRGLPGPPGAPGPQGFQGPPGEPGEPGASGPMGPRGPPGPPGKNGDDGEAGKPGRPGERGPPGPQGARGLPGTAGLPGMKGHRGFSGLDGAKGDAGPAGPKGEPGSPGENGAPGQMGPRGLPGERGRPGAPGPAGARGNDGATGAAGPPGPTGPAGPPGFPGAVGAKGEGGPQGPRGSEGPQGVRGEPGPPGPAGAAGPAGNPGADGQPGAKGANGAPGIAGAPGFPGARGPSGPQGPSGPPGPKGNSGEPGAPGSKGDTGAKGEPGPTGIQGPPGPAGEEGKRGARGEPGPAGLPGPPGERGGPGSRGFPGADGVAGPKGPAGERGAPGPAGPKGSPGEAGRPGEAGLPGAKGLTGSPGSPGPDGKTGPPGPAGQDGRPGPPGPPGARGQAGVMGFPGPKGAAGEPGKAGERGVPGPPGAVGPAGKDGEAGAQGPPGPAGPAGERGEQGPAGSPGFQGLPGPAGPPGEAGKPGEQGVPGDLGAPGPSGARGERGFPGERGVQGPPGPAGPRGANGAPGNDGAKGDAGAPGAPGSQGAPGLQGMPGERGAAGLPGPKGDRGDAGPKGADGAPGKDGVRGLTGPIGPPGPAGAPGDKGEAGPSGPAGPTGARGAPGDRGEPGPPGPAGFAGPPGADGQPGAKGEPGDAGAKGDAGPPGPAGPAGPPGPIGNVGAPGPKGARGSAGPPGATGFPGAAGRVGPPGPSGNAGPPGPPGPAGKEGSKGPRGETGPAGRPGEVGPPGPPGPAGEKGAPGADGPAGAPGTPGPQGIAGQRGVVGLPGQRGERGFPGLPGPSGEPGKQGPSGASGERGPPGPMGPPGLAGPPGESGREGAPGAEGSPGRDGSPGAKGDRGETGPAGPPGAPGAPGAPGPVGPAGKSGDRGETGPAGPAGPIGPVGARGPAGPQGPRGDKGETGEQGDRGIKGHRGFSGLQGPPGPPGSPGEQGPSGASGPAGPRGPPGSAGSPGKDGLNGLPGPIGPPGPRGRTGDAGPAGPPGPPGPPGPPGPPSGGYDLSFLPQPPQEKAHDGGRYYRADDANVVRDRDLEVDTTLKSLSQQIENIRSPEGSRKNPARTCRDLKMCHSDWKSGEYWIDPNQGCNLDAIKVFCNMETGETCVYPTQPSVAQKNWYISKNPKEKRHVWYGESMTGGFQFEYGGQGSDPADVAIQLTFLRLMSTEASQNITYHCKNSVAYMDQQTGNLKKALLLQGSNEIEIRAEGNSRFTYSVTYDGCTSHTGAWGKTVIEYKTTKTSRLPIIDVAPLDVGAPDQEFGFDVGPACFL
UniProt P02465: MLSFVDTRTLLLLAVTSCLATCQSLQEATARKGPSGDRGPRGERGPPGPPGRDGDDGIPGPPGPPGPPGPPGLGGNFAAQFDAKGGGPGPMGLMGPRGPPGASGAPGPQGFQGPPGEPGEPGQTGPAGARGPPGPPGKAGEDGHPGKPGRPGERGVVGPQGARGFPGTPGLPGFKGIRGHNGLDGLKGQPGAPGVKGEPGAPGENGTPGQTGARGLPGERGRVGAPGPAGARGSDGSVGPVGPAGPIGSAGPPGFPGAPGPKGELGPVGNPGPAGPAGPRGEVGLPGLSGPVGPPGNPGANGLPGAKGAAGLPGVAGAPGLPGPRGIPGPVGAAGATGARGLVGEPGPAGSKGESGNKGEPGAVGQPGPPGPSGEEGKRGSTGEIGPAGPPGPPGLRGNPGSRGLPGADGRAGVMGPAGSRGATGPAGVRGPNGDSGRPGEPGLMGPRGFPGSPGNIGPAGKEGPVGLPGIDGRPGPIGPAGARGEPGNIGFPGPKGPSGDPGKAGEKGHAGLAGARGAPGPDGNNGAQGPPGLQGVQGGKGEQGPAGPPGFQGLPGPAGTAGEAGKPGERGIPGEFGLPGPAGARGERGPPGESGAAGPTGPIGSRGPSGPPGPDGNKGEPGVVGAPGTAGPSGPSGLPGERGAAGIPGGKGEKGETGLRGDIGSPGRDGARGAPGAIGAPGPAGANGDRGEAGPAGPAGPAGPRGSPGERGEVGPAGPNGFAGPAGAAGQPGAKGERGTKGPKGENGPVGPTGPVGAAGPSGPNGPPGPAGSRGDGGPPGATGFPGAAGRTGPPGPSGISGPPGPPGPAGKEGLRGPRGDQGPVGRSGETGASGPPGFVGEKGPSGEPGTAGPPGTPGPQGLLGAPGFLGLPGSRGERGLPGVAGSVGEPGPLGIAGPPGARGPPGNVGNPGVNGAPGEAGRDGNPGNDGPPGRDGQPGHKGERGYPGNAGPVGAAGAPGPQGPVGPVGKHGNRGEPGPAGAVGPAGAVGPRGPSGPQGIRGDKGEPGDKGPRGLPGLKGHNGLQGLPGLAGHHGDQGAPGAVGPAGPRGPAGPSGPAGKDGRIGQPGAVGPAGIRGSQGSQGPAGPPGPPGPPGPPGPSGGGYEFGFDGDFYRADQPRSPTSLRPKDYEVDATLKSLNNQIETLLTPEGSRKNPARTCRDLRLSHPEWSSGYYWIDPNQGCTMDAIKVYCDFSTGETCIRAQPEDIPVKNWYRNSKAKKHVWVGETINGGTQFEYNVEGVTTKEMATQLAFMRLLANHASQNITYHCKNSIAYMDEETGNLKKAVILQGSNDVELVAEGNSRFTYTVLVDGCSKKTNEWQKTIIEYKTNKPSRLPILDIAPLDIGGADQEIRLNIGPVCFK

Molecular target: Gelatin sepharose (bovine skin Type I collagen gelatin) (bovine) (UniProt P02453+P02465)
Assay: gelatin sepharose pull-down, SDS-PAGE

binding: binds
B1: peptide 333 comprising three modules corresponding to module 3 of the CBD of MMP-2 (designed binder)
chain: EGQVVSTVYGNSEGAPCVFPFTFLGNKYESCTSAGRSDGFLWCATTANYDDDRKWGFCPHEALFTMGGNSEGAPCVFPFTFLGNKYESCTSAGRSDGKRWCATTANYDDDRKWGFCPETAMSTVGGNSEGAPCVFPFTFLGNKYESCTSAGRSDGKMWCATTANYDDDRKWGFCPDQGYSL
